{"source": "patent US6180767A", "about": "(Thomas Jefferson University, priority 1997, dated 2001)", "experiment": "general procedure: Boc solid-phase peptide synthesis", "conditions": "whole synthesis, calculated from area under HPLC peak", "data": [{"substance": "H-Gly-CCGCTTCCTTTC-Gly-Gly-Gly-Gly-D-Cys-D-Ser-D-Lys-D-Cys-NH2", "values": [{"measurement": "isolated yield", "result": "almost 90%"}]}]}
